Results on 17 compounds are retold here after PubChem BioAssay AID248 (DTP/NCI, 2004).

The assay relates to L1210 leukemia ip in BDF1 mice, survival T/C. The assay is described as follows: NCI In Vivo Anticancer Drug Screen. Data for tumor model L1210 Leukemia (intraperitoneal) in B6D2F1 (BDF1) mice. To be noted: T/C endpoint: mean survival time, higher T/C = longer survival.
The mark [1] stands for this setting: dose: 400.0 mg/kg/injection, schedule: Q04DX003 (ip), vehicle: Klucel (hydroxypropylcellulose) (HPC).
[2] abbreviates: dose: 400.0 mg/kg/injection, schedule: Q04DX003 (ip), vehicle: saline with Tween-80.
Where [3] appears, read: dose: 300.0 mg/kg/injection, schedule: Q01DX001 (ip), vehicle: saline.
The mark [4] stands for this setting: dose: 400.0 mg/kg/injection, schedule: Q04DX003 (ip), vehicle: saline.

The list does not hold the whole screen: it gathers tests that were run many times, whatever their T/C, doses with no T/C, and many T/C values between a quarter and a half above the control. Further doses and runs are listed elsewhere. T/C gives the treated animals as a percentage of the vehicle group. Some entries give survivors of the animals treated and no T/C: the source holds a T/C of zero for them, seemingly a mark for toxic or unscored doses. Some survivor counts are full or nearly so, which does not show that the dose was tolerated: the source hardly ever lists a survival T/C far under the control, and the zero likely stands for such cases as well. Survivors were counted at the toxicity check, usually on the fifth day, unless a day is given; later deaths do not show. Schedules are NCI's codes, read here as Q, the interval in days (D) or hours (H), X, the number of doses. Some schedule codes hold Z or #, which are not explained here. Some structures stand for samples that the source files as different forms (salt, stereo form or complex); doses refer to the form tested. Some entries were tested several times; the results are listed from low to high. Signs of the kind (2×) stand for listed records that agree. Where survival is the endpoint, this PubChem deposit counts one and a half times the control or more as active, and values a quarter to a half above the control carry no call in these data; other NCI protocols may use other cut-offs. Some T/C values carry the count of animals alive at the toxicity check (mostly the fifth day); without a count, all were alive then.

As to `CCOC(=O)C1CCC(NC(=O)N(CCCl)N=O)CC1` (configuration not stated), the T/C was 129 % of control (dose: 6.0 mg/kg/injection, schedule: Q01DX001 (ip), vehicle: other) and 146 % of control [8 of 10 alive] (dose: 67.0 mg/kg/injection, schedule: Q01DX001 (ip), vehicle: other). Further, the survivor count by setting is: (dose: 100.0 mg/kg/injection, schedule: Q01DX001 (ip), vehicle: other) 8 of 10; (dose: 125.0 mg/kg/injection, schedule: Q01DX001 (ip), vehicle: other) 5 of 6; (dose: 250.0 mg/kg/injection, schedule: Q01DX001 (ip), vehicle: other) 2 of 6; (dose: 375.0 mg/kg/injection, schedule: Q01DX001 (ip), vehicle: other) 0 of 6; (dose: 500.0 mg/kg/injection, schedule: Q01DX001 (ip), vehicle: other) 0 of 6.

Turning to `CC(=O)OS(C)(=O)=O`, the survivor count by setting is: (dose: 200.0 mg/kg/injection, schedule: Q01DX009 (ip), vehicle: Klucel (hydroxypropylcellulose) (HPC)) 1 of 6; (dose: 200.0 mg/kg/injection, schedule: Q04DX003 (ip), vehicle: Klucel (hydroxypropylcellulose) (HPC)) 3 of 6; under setting [1], 0 of 6.

`CC1CC(C)(C)N=C(C2(c3ccccc3)CC2)O1` (configuration not stated): the survivor count (dose: 200.0 mg/kg/injection, schedule: Q04DX003 (ip), vehicle: saline with Tween-80) is recorded as 5 of 6 and the survivor count under setting [2] is listed as 1 of 6.

As for `CC1=CC(=O)C(C)(C(Cl)Cl)C=C1` (configuration not stated), the survivor count under setting [2] is 0 of 6.

In the case of `C/C=C/CC1(C(C)C)C(=O)NC(=O)NC1=O`, the survivor count reads like this: (dose: 300.0 mg/kg/injection, schedule: Q01DX001 (ip), vehicle: other) 0 of 6; under setting [3], 1 of 6.

`C=Cc1c2[n-]c(c1C)/C=c1\[n-]/c(c(C)c1C=C)=C\c1[n-]c(c(CCC(=O)O)c1C)/C=c1\[n-]/c(c(C)c1CCC(=O)O)=C\2.[Co]`: the survivor count (dose: 400.0 mg/kg/injection, schedule: Q01DX009 (ip), vehicle: dextrose) is given as 3 of 6.

As to `ClC1=C(Cl)C(Cl)(Cl)SC1(Cl)Cl`, the survivor count is listed as 0 of 6 (dose: 18.0 mg/kg/injection, schedule: Q01DX009 (ip), vehicle: acetone); 5 of 6 (dose: 25.0 mg/kg/injection, schedule: Q04DX003 (ip), vehicle: acetone); 0 of 6 (dose: 28.0 mg/kg/injection, schedule: Q01DX009 (ip), vehicle: acetone); 0 of 6 (dose: 40.0 mg/kg/injection, schedule: Q01DX009 (ip), vehicle: acetone); 1 of 6 (dose: 50.0 mg/kg/injection, schedule: Q04DX003 (ip), vehicle: acetone).

As for `S=P(NC1CCCCC1)(N1CC1)N1CC1`, the T/C (dose: 10.0 mg/kg/injection, schedule: Q01DX Z (ip), vehicle: carboxymethylcellulose (CMC)) is 141 % of control. Besides, the survivor count (dose: 40.0 mg/kg/injection, schedule: Q01DX Z (ip), vehicle: carboxymethylcellulose (CMC)) is given as 6 of 6.

Take `CCCc1c(O)ccc(C)c1C`: the survivor count (dose: 400.0 mg/kg/injection, schedule: Q01DX001 (ip), vehicle: other) is reported as 1 of 4.

Turning to `ONC(=Nc1ccccc1)c1ccccc1`, the survivor count under setting [4] is given as 3 of 6.

As for `CCc1ccc(C2=C(O)C(=O)C(c3ccccc3)=C(O)C2=O)cc1`, the survivor count is on record as 1 of 6 (dose: 38.0 mg/kg/injection, schedule: Q01DX Z (ip), vehicle: carboxymethylcellulose (CMC)); 1 of 6 (dose: 57.0 mg/kg/injection, schedule: Q01DX Z (ip), vehicle: carboxymethylcellulose (CMC)); 2 of 6 (dose: 75.0 mg/kg/injection, schedule: Q01DX009 (ip), vehicle: saline); 0 of 6 (dose: 85.0 mg/kg/injection, schedule: Q01DX Z (ip), vehicle: carboxymethylcellulose (CMC)). Besides, the T/C (dose: 50.0 mg/kg/injection, schedule: Q01DX009 (ip), vehicle: acetone) was 127 % of control.

For `Brc1cnn2c1NCC2`, the survivor count is on record as 6 of 6 (dose: 100.0 mg/kg/injection, schedule: Q04DX003 (ip), vehicle: water); 6 of 6 (dose: 200.0 mg/kg/injection, schedule: Q04DX003 (ip), vehicle: water); 0 of 6 (dose: 400.0 mg/kg/injection, schedule: Q01DX009 (ip), vehicle: water); 4 of 6 (dose: 400.0 mg/kg/injection, schedule: Q04DX003 (ip), vehicle: water).

Take `CC1(C)C2(C(N)=O)C(=O)NC(=O)C12C(=O)O` (configuration not stated): the survivor count (dose: 100.0 mg/kg/injection, schedule: Q04DX002 (ip), vehicle: saline with Tween-80) is listed as 3 of 3 and the survivor count (dose: 400.0 mg/kg/injection, schedule: Q04DX002 (ip), vehicle: saline with Tween-80) is given as 3 of 3.

For `[I][Bi]([I])[I]`, the T/C runs as follows: (dose: 100.0 mg/kg/injection, schedule: Q01DX001 (ip), vehicle: water) 95, 101 (2×), 103 % of control; (dose: 200.0 mg/kg/injection, schedule: Q01DX001 (ip), vehicle: water) 97 (3×) and 101 % of control; (dose: 400.0 mg/kg/injection, schedule: Q01DX001 (ip), vehicle: water) 95, 97 (2×), 101 % of control. In addition, the survivor count (dose: 400.0 mg/kg/injection, schedule: Q01DX001 (ip), vehicle: carboxymethylcellulose (CMC)) is 1 of 4.

As to `C=C(Br)CNC(N)=S`, the survivor count under setting [1] was 4 of 6.

On to `CC1CCC(C)(C)CC1(C)c1cc(CN(C)C)c(O)c(CN(C)C)c1` (configuration not stated), for which the survivor count (dose: 100.0 mg/kg/injection, schedule: Q04DX003 (ip), vehicle: acetone) was 3 of 6; the survivor count (dose: 200.0 mg/kg/injection, schedule: Q04DX003 (ip), vehicle: acetone) is on record as 0 of 6; the survivor count (dose: 400.0 mg/kg/injection, schedule: Q04DX003 (ip), vehicle: acetone) is reported as 0 of 6.

`C[N+](C)(C)Cc1ccccc1`: the survivor count (dose: 25.0 mg/kg/injection, schedule: Q01DX009 (ip), vehicle: saline) is recorded as 4 of 6; the survivor count (dose: 40.0 mg/kg/injection, schedule: Q01DX001 (ip), vehicle: saline) was 0 of 4 and 2 of 6; the survivor count (dose: 50.0 mg/kg/injection, schedule: Q01DX001 (ip), vehicle: saline) is 0 of 4; the survivor count (dose: 50.0 mg/kg/injection, schedule: Q01DX009 (ip), vehicle: saline) is recorded as 0 of 3; the survivor count (dose: 50.0 mg/kg/injection, schedule: Q04DX003 (ip), vehicle: saline) is reported as 0 of 6; the survivor count (dose: 75.0 mg/kg/injection, schedule: Q01DX001 (ip), vehicle: saline) is given as 0 of 6. Also, the survivor count is, setting by setting: (dose: 80.0 mg/kg/injection, schedule: Q01DX001 (ip), vehicle: saline) 0 of 4; (dose: 100.0 mg/kg/injection, schedule: Q01DX001 (ip), vehicle: saline) 0 of 4; (dose: 100.0 mg/kg/injection, schedule: Q01DX009 (ip), vehicle: saline) 0 of 3, 0 of 6, 5 of 6; (dose: 100.0 mg/kg/injection, schedule: Q04DX003 (ip), vehicle: saline) 0 of 6; (dose: 150.0 mg/kg/injection, schedule: Q01DX001 (ip), vehicle: saline) 0 of 6; (dose: 200.0 mg/kg/injection, schedule: Q01DX001 (ip), vehicle: saline) 0 of 4. Moreover, the survivor count runs as follows: (dose: 200.0 mg/kg/injection, schedule: Q01DX009 (ip), vehicle: saline) 0 of 6 (2×); (dose: 200.0 mg/kg/injection, schedule: Q04DX003 (ip), vehicle: saline) 0 of 6; under setting [3], 0 of 6; (dose: 400.0 mg/kg/injection, schedule: Q01DX001 (ip), vehicle: saline) 0 of 4; (dose: 400.0 mg/kg/injection, schedule: Q01DX009 (ip), vehicle: saline) 0 of 6 (2×); under setting [4], 0 of 6.
